Hit rate of the full screen: of about 52,000 sequences, about 210 (0.4%) were called active.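 Rule for the calls: active = gene whose silencing raises cell survival under the drug, median off-target-corrected z-score across its silencing RNAs 2 or more; inactive = the rest.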 This is one part of the list.

This assay can be described thus: Resistance to Poly (ADP-Ribose) Polymerase inhibitor: Gene Identification via Genome-wide siRNA Screen. Conditions: mouse BRCA2 R2336H ES cells, olaparib, CellTiter-Glo viability; active compounds read high. The gist of the method:
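Mouse BRCA2 R2336H ES cells were reverse-transfected with siRNA (20 nM final), treated at 48 h with 500 nM olaparib, and read by CellTiter-Glo after 72 h. Scores: MAD-based z per siRNA, median per gene, seed off-target correction.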
For orientation: ATP-based viability assays read luminescence as a measure of living cells.
Turning to GGAGUUAUUAACUGAAGAGTT against Cyp2c55, the z-score is inactive: 0.338.
For the sequence CCCACAUCAUUGAGAUUCUTT against Olfr1508, the z-score was inactive: 0.349.
In the case of GCCGUUCUGCUAUCACAACTT against Scrn2 it was inactive: 0.0402; in that of “GCUGACUGCUAAAAUCCAGTT against 2600017H08Rik”, inactive: 0.76.
Turning to “GGUAAAUCAGCCAUAGUUUTT against 7530404M11Rik”, the z-score was inactive: -1.07.
Turning to GCAGAAGUAUUACUGGAUGTT against Olfr572, the z-score was inactive: -0.569.
GCUUGUUAUGUCACAUAUCTT against Pdcl3: the z-score is inactive: -0.974.
Then GGUCCAAGUCCGAAAAUAUTT against Gpr108, with inactive: -2.91.
Turning to “GCCAUUUAUUCGUCUCUUCTT against 3321401G04Rik”, the z-score was inactive: 0.499.
For GGAAUUUCUGGAGAAACUUTT against Lypla2, the z-score was inactive: -1.62.
GUUUGGCCGAGUUCAUUUCTT against BC028278: the z-score is inactive: -2.16.
Then “GGAUGACCUCAUGCUUAUUTT against 1700016G05Rik”, with inactive: -0.299; and GGAAAAAGUUGCUCAAAAUTT against Mrps15, with inactive: 0.42; and CCACAUCCUGACUACUACATT against Sumo2, with inactive: -3.56.
On to “GGGCUGUUCUACUUAGUUATT against 5830445C04Rik”, for which the z-score was inactive: 1.56.
In the case of GGGUGUUAUUUUCUUCUAUTT against Stambp it was inactive: 0.823; in that of GCACAUAGCAUCCACUCCATT against LOC215714, inactive: 0.00803; in that of GGGUUUAGACCAAUCCCUCTT against Adamts15, inactive: -0.186.
In the case of GGUCACCUACUAUCACAAGTT against Kcnh7, the z-score was inactive: -0.349.
In the case of GUGUUCAAUAUACUGGCAATT against Klra10 it was inactive: -0.411; in that of CGUUCUAUGGAAACUGGAGTT against Cte1, inactive: -0.602.
With GGGAAGAAUACUAUAGAUGTT against Slc12a2, the z-score is inactive: 0.159.
For “GGAGGUAAAAGAUGAGAAATT against 2810052M02Rik”, the z-score was inactive: -0.511.
In the case of GCACAAUAAAGCUUGUUGCTT against Htf9c it was inactive: -0.782; in that of UCGAGGACAGCAUGAACAGTT against Rims4, inactive: 1.55; in that of GGGAGAGCAGUUUGAAUGGTT against Usp27x, inactive: -0.515.
Regarding CCAGGUGAAUUAAUAGUCUTT against Stk4, the z-score is inactive: -0.315.
In the case of GGGCAAAUAGUCAAUGACCTT against Es22 it was inactive: 0.17; in that of GGACGAACAGUAUUAUACUTT against Lhx5, inactive: 0.685.
Then GCAACCUUAUGCUCUAUUUTT against Ythdf3, with inactive: 0.839.
In the case of GGAGGUGAGAAAUACAGAGTT against Dbpht2 it was inactive: 0.056; in that of GCACUUUUCGGAACUAUAUTT against Rbp1, inactive: 0.407.
On to GGGAUUCAGUAUAAAACACTT against Nup37, for which the z-score is inactive: -0.175.
In the case of CCUAUGUGUGUGAUCUUGATT against Nnmt it was inactive: -0.428.
As to “GGAGUAUAACUAUGGCUUCTT against 1110012M11Rik”, the z-score is inactive: -0.166.
On to “GGCUAUAAUGAACCAGCUGTT against A130030D10Rik”, for which the z-score is inactive: -2.19.
In the case of GGAACUGUAUUCAUUGAUGTT against Rnpepl1 it was inactive: 0.923; in that of “GGUUGGGAGAAGAAACUUCTT against 2810453K03Rik”, inactive: -1.63; in that of GCUAUAUGCUGAGUAUGACTT against Olfr777, inactive: 0.305.
For “GGAAACAAGGAAACAACAGTT against 1700042N06Rik”, the z-score is inactive: -0.0523.
In the case of “CCAUGACCUAGACUCUACATT against 2310075M15Rik” it was inactive: 0.107; in that of “GGAAAAAGAUGCGACAAUGTT against A930012O16Rik”, inactive: 0.723.
Then “CCAUCUAGUGCUGUAUUUCTT against 0610009J22Rik”, with inactive: 0.358; and CGCAUUUCAAGGGAAAAUUTT against Tubgcp3, with inactive: -1.81; and “CCAUGAAGAACAAGAAAACTT against 1700010D01Rik”, with inactive: 0.934.
Then “CCAAUGGUGAUCAAAGCGGTT against 8430429K09Rik”, with inactive: -0.987; and “CCUGUACCCGAACAUACCATT against 1700008G05Rik”, with inactive: -2.19.
CCACGUGUUUGCAUUCAAATT against Gdd1: the z-score is inactive: 0.222.
Then GGUUGGCUAGUCUGUCUGATT against Atp5h, with inactive: -0.812; and CCGCCUAGCUGAUCUUGUGTT against Aldh1b1, with inactive: -1.71; and GCAGUCCAGUAAUUAAUUCTT against Havcr2, with inactive: 0.826.
In the case of CCUAAGCAGCAUUUCAAUATT against Gyg1 it was inactive: 0.434; in that of “GGAGCGAUUUCAUUUGGAUTT against D8Ertd594e”, inactive: 0.472; in that of GGCGACAGACUUAUUAUUGTT against Prdx5, inactive: 1.04.
For “CCCUAACUGAGGAAGGAGGTT against C130073D16Rik”, the z-score was inactive: 0.201.
Then GGAAGACCUGAAGAAGGUGTT against Gck, with inactive: -0.194; and UCAACUCAAACUAUGUCGATT against Hoxb4, with inactive: 0.0592; and GGAAACUAGAUCAUGAGAUTT against Rtkn, with inactive: 0.59.
In the case of CCUUAAGGAACUAGGAUUCTT against Gpr49, the z-score is inactive: 0.383.
In the case of GCUACAAAUAUUCUUUGGCTT against Mmp20, the z-score was inactive: 0.081.
Then GGUCUUUGUGCCAAUAGAGTT against Orc3l, with inactive: 0.472.
Then GCAGCAUAGAGACUAAAUCTT against Dub1, with inactive: 1.3; and CCUUAAAGAACUAUCAUUGTT against Senp2, with inactive: 0.321.
Take GGUGGAGUUAGAAAACUACTT against LOC210321: the z-score was inactive: 0.381.
In the case of GGAAUGAUUUUCUUAAGGATT against Ddr2 it was inactive: -0.878; in that of GAUUACGUUGGCCUGUCUCTT against Tff3, inactive: -0.849.
Take GAUCCAAGACAAGGAAGGCTT against Uba52: the z-score was inactive: -3.12.
Regarding GCUGGUUACAUGAAAUUAATT against Nup133, the z-score is inactive: -0.276.
Then “GGACCUUGAGAUAUCUUUUTT against D130020L05Rik”, with inactive: -1.1.
On to GCUAUCCAGAUUGGUGUUATT against Tatdn1, for which the z-score is inactive: -0.384.
Consider “CAUUCCAACACUUCAAACUTT against 2410025L10Rik”, for which the z-score is inactive: 1.02.
GGGUCGUUGUCCCUUUGACTT against Sema4b: the z-score is inactive: 0.155.
Then CCAAUAACCCAGGAGUGCUTT against Cst7, with inactive: 0.528; and GGACUAUAUUCAGCAGCUUTT against Mrpl22, with inactive: -0.608; and CCUUCUUCUUACUGAUAAUTT against Olfr1276, with inactive: -0.946.
Regarding “GGGCCUUCAAAAAACUGCCTT against 2610027C15Rik”, the z-score was inactive: -0.246.
Then GCCAAAAAUAUGGGAGAUATT against Col1a1, with inactive: 0.133; and GGCCCUUGUUUAAAGCCAUTT against Asns, with inactive: -1.53.
Regarding “GGAAUUAUCAGCGAUAAAGTT against 1110001A07Rik”, the z-score was inactive: 0.15.
For “GGAUAAGCAGUACUUUAAATT against 1810011K17Rik”, the z-score was inactive: 1.34.
For CCAAGUUUUCAAAACAAACTT against Aqp3, the z-score is inactive: 1.37.
In the case of GCGGAGAUACUGGAGUUCGTT against Hes7 it was inactive: 1.37; in that of “GGGCAAACUCACAUCUAAATT against 9830109N13Rik”, inactive: 0.447.
Consider GGAAUCCCAGUGCUUGAAGTT against Efna1, for which the z-score was inactive: -0.104.
In the case of GGAAUGAUUGUCUUGAUUCTT against Olfr952 it was inactive: -0.817; in that of GUAAUUCACAGUGGUCUGGTT against Mrps12, inactive: -1.79; in that of GGAAAAAAUACCAGAAACATT against Klre1, inactive: -0.387.
Regarding CCACAGGAUUUGUCUCCUCTT against Olfr328, the z-score is inactive: -1.53.
Take GCCUGGAUUAUAGGAUCACTT against Hspc171: the z-score was inactive: 0.314.
Consider “GGCCCUGCUUGUGUUUAAUTT against 2600016J21Rik”, for which the z-score is inactive: -1.05.
Then GGUCACUCCAUUGACUCAATT against Obrgrp, with inactive: 0.699; and GGCCAACUGCCCUCACAUUTT against Rbbp9, with inactive: -0.352.
Take GCCCAAAUCUCAUUCAUAGTT against Kif5a: the z-score is inactive: -0.861.
Regarding CGGUUUGGAAUGAAGAAUUTT against Rasa3, the z-score is inactive: 0.394.
As to GCGAAAUCAGUUGGUAAAUTT against Atf7, the z-score was inactive: 0.219.
Regarding CCGUAACAAGGAUCAGGAATT against S100a6, the z-score was inactive: 1.15.
In the case of GGAGGACUGGGAAGAUCAUTT against Aqp5 it was inactive: 1.6; in that of “GGACACUGUGAUGUGAGACTT against 2700087H15Rik”, inactive: 0.684.
On to CGAGUGAAUGACUUUAACATT against Ubn1, for which the z-score is inactive: 0.561.
Then GCUAAGAUUCCUUCCAGUATT against Adm2, with inactive: -1.11; and AGGUAACAGUUCAACAGUATT against Olfr1039, with inactive: 0.0358; and GGAAGUUCAAGUGCUACUGTT against Zpbp2, with inactive: 0.0841.
Then “CCUACCUCCUGAAUUUAUUTT against D1Bwg0212e”, with inactive: 2.

The values above are taken from PubChem BioAssay AID1347423 (Functional Genomics Laboratory (NCATS/FGL), 2020).
